Consider two molecules from doi:10.64898/2025.12.29.696918.

The chains behind the UniProt entries cited, without tags or fusion partners.
UniProt Q86XR7: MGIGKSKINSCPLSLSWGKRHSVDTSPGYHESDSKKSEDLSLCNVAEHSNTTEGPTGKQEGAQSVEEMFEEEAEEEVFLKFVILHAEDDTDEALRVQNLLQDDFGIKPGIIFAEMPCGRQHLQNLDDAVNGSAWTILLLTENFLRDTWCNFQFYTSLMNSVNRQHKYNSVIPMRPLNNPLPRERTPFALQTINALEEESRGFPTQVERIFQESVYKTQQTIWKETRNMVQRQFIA

Results are given in words; binding and its absence hold for the method and conditions named. In cells and extracts the contact can be indirect. Some results given as binding are weak or reduced against the parent protein; the word gives no strength.

The target of assay [1] is T1, biotinylated P7-Pen (SLAMF1-derived peptide P7 joined to penetratin).
T1 sequence (peptide, biotin covalently linked to the C-terminal lysine): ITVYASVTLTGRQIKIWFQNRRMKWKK
The assay can be described thus: pull-down.

Assay [2] deals with T2, biotinylated Penetratin (control peptide).
T2 sequence (peptide, biotin covalently linked to the C-terminal lysine): RQIKIWFQNRRMKWKK
The assay can be described thus: pull-down.

Regarding TRAM (from UniProt Q86XR7 1-235), the binding entry in assay [1] is on record as “binds”.

B1: lysine deacetylase ABHD14B (enzyme, UniProt Q96IU4 1-210)
chain: MAASVEQREGTIQVQGQALFFREALPGSGQARFSVLLLHGIRFSSETWQNLGTLHRLAQAGYRAVAIDLPGLGHSKEAAAPAPIGELAPGSFLAAVVDALELGPPVVISPSLSGMYSLPFLTAPGSQLPGFVPVAPICTDKINAANYASVKTPALIVYGDQDPMGQTSFEHLKQLPNHRVLIMKGAGHPCYLDKPEEWHTGLLDFLQGLQ
With B1, the binding entry in assay [1] is “binds”; in assay [2], “no binding”.
